Data as given in the supplement of paper PMC10032668.
The list shows a part of the results. The list holds hits alone, and they repeat only in part.

Sequences of proteins named here, by UniProt entry; tags and fusion partners are left off.
C15orf61, A6NNL5, UniProt A6NNL5, whole entry: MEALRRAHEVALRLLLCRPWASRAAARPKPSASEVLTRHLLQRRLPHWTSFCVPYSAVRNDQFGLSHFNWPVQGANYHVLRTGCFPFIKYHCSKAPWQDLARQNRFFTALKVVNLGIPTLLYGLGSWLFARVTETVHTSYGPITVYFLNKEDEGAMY
PCBP2, Q15366, UniProt Q15366, whole entry: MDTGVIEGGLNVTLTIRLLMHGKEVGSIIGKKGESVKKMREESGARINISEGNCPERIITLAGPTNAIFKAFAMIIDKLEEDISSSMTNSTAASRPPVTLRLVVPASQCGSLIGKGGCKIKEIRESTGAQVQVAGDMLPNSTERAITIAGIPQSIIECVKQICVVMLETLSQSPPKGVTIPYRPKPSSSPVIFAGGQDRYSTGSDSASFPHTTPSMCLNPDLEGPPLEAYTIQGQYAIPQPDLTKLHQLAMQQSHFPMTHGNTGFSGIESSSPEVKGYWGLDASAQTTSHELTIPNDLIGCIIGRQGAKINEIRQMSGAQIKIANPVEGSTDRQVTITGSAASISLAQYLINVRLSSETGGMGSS

Assays:
Experiment in all cases: PRISMA enrichment of interactor (LFQ) in peptide spot vs all other peptide spots (log2 fold change); higher = stronger / more specific binding of the interactor to the peptide
[1] = target: APRT, P07741
Protocol: (§1)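 PRISMA: 221 full-length sORF-encoded peptides (3-15 aa), plus SOS1/GLUT1 control peptides, were spot-synthesized on cellulose membranes in triplicate. Membranes were incubated with HEK293T lysate, and bound proteins were identified by LC-MS/MS with LFQ. Enrichment is the log2 fold change versus all other peptide spots; only significant interactors are listed (cutoff c=6, x0=2.8).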

[2] = target: C15orf61, A6NNL5
Protocol: as §1

[3] = target: CHTF18, Q8WVB6
Protocol: as §1

[4] = target: EIF2B3, Q9NR50
Protocol: as §1

[5] = target: FOXK1, P85037
Protocol: as §1

[6] = target: NDUFAB1, O14561
Protocol: as §1

[7] = target: NUP188, Q5SRE5
Protocol: as §1

[8] = target: SDC4, P31431
Protocol: as §1

[9] = target: VPS18, Q9P253
Protocol: as §1

[10] = target: ASCC3, Q8N3C0
Protocol: as §1

[11] = target: CHCHD1, Q96BP2
Protocol: as §1

[12] = target: CLPB, Q9H078
Protocol: as §1

[13] = target: CTSA, P10619
Protocol: as §1

[14] = target: DERPC, P0CG12
Protocol: as §1

[15] = target: FGA, P02671
Protocol: as §1

[16] = target: GIT1, Q9Y2X7
Protocol: as §1

[17] = target: MT-ATP8, P03928
Protocol: as §1

[18] = target: PDCD6, O75340
Protocol: as §1

[19] = target: PSMC4, P43686
Protocol: as §1

[20] = target: UQCRQ, O14949
Protocol: as §1

[21] = target: APLP2, Q06481
Protocol: as §1

[22] = target: MPHOSPH10, O00566
Protocol: as §1

[23] = target: AP3M1, Q9Y2T2
Protocol: as §1

[24] = target: CKS2, P33552
Protocol: as §1

[25] = target: COL6A2, P12110
Protocol: as §1

[26] = target: CTNNBL1, Q8WYA6
Protocol: as §1

[27] = target: DUSP3, P51452
Protocol: as §1

[28] = target: MCU, Q8NE86
Protocol: as §1

[29] = target: MT-ND1, P03886
Protocol: as §1

[30] = target: PCBP2, Q15366
Protocol: as §1

[31] = target: PICALM, Q13492
Protocol: as §1

[32] = target: TBL1X, O60907
Protocol: as §1

[33] = target: TMED1, Q13445
Protocol: as §1

[34] = target: UMPS, P11172
Protocol: as §1

[35] = target: VIRMA, Q69YN4
Protocol: as §1

[36] = target: WDR5, P61964
Protocol: as §1

[37] = target: YTHDC2, Q9H6S0
Protocol: as §1

[38] = target: AOC3, Q16853
Protocol: as §1

[39] = target: NQO2, P16083
Protocol: as §1

[40] = target: SEPTIN8, Q92599
Protocol: as §1

B1: ZFYVE9 (peptide)
chain: MSKHREVCSLSRV
PRISMA enrichment of interactor (log2) [1]: 5.85 | PRISMA enrichment of interactor (log2) [2]: 5.09 | PRISMA enrichment of interactor (log2) [3]: 7.93 | PRISMA enrichment of interactor (log2) [4]: 5.66 | PRISMA enrichment of interactor (log2) [5]: 4.94 | PRISMA enrichment of interactor (log2) [6]: 4.76 | PRISMA enrichment of interactor (log2) [7]: 6.21 | PRISMA enrichment of interactor (log2) [8]: 13.1 | PRISMA enrichment of interactor (log2) [9]: 9.29

B2: SORBS1 (peptide)
chain: MHLPTTLNH
PRISMA enrichment of interactor (log2) [10]: 6.21 | PRISMA enrichment of interactor (log2) [11]: 4.7 | PRISMA enrichment of interactor (log2) [12]: 4.47 | PRISMA enrichment of interactor (log2) [13]: 5.15 | PRISMA enrichment of interactor (log2) [14]: 8.82 | PRISMA enrichment of interactor (log2) [15]: 4.73 | PRISMA enrichment of interactor (log2) [16]: 4.34 | PRISMA enrichment of interactor (log2) [17]: 6.2 | PRISMA enrichment of interactor (log2) [18]: 6.46 | PRISMA enrichment of interactor (log2) [19]: 5.03 | PRISMA enrichment of interactor (log2) [20]: 5.04

B3: TMEM87A (peptide)
chain: MLSVGTPRL
PRISMA enrichment of interactor (log2) [21]: 7.59 | PRISMA enrichment of interactor (log2) [22]: 5.71

B4: ENY2 (peptide)
chain: MRVLAFCVLRCPSY
PRISMA enrichment of interactor (log2) [23]: 6.19 | PRISMA enrichment of interactor (log2) [24]: 4.81 | PRISMA enrichment of interactor (log2) [25]: 5.11 | PRISMA enrichment of interactor (log2) [26]: 8.03 | PRISMA enrichment of interactor (log2) [27]: 5.47 | PRISMA enrichment of interactor (log2) [28]: 6.24 | PRISMA enrichment of interactor (log2) [29]: 7.05 | PRISMA enrichment of interactor (log2) [30]: 4.13 | PRISMA enrichment of interactor (log2) [31]: 5.32 | PRISMA enrichment of interactor (log2) [32]: 4.28 | PRISMA enrichment of interactor (log2) [33]: 5.12 | PRISMA enrichment of interactor (log2) [34]: 5.15 | PRISMA enrichment of interactor (log2) [35]: 5.02 | PRISMA enrichment of interactor (log2) [36]: 5.12 | PRISMA enrichment of interactor (log2) [37]: 7.09

B5: PCM1 (peptide)
chain: MAVAAAVGAA
PRISMA enrichment of interactor (log2) [38]: 7.43 | PRISMA enrichment of interactor (log2) [39]: 5.19 | PRISMA enrichment of interactor (log2) [40]: 5.95
